# The campaign covered roughly 2,100 compounds. About 260 (12%) were called active. The inconclusive results got no clear call from the source; some entries with a clear call stand among them for comparison. The call rests on the fitted dose curve; in most records, active means well fitted cell-killing curve with a large enough effect; inconclusive means small, poorly fitted or top-dose-only effect, or effect the other way; inactive means flat fitted curve, though single readings scatter. Potencies of inconclusive entries are doubtful fits and often do not repeat.
# Test: Viability Counterscreen for Confirmatory qHTS for Inhibitors of ATXN expression; further: nearly all actives have a fitted effect of over 50% in size
# Details: HEK-293 ATXN2-luc cells viability, CellTiter-Fluor, 24 h
# Description: PI: Daniel Scoles Ph.D. University of Utah School of Medicine, Salt Lake City, Utah MLPCN Grant: NS073009 Spinocerebellar ataxia type 2 (SCA2) is a multisystem neurodegenerative disease caused by a dominantly acting mutation leading to expansion of a polyQ domain in the ataxin-2 protein (ATXN2). SCA2 patients develop progressive ataxia and later lose function in other neuronal systems. Prominent parkinsonian signs develop in some patients. Like many neurodegenerative disorders, no symptomatic or disease-modifying treatments are known. The primary objective of the proposed research is to identify compounds inhibiting ATXN2 expression and to test them for efficacy in SCA2 mouse models. We have developed a cell-based assay paired with an in vivo mouse model using identical luciferase expression constructs. This approach takes advantage of an ATXN2-luciferase transgene, with the luciferase gene flanked by the upstream and downstream portions of the ATXN2 gene. Here we describe a 5-7 dose quantitative high thoroughput screen (qHTS) for compounds lowering ATXN2 expression. We screened the NIH Molecular Libraries Small Molecule Repository (MLSMR) and NCGC's mechanistically annotated (MIPE) and drug repurposing (NPC) collections of compounds for lowering expression of an ATXN2-luciferase reporter in HEK-293 cells. The assay is a multiplexed cell viability assay to ensure target reduction in the absence of cytotoxicity. Secondary qHTS assays included a CMV-luciferase reporter expressed in HEK-293 cells as well as a biochemical assay using recombinant luciferase to detect inhibitors of the reporter enzyme. Compounds that inhibit ATXN2 expression but is not cytotoxic were selected for confirmatory and secondary screens.
# PROTOCOL TABLE (as described by Inglese J, Shamu CE and Guy RK. 2007) SEQUENCE No. (e.g., 1, 2, 3, etc.); […] (e.g., Cells, Incubation, Reagent, etc.); VALUE; DESCRIPTION. 1; Cells; 4 uL; white, solid bottom, 1536-well Greiner assay plate. 2; Incubation; 2 hr; 37 degree C in 5% humidified CO2. 3; Compounds; 23 nL; Kalypsis pintool (Wako USA) equipped with a 1536-well pin head. 4; Incubation; 24 hr; 37 degree C in 5% humidified CO2. 5; Reagent; 1 uL; Gly-Phe-7-Amino-4-trifluoromethylcoumarin. 6; Incubation; 30 min; 37 degree C in 5% humidified CO2. 7; Detection; Fluorescence; ViewLux plate reader (PerkinElmer). 8; Reagent; 3 uL; SteadyGlo luciferase solution (Promega). 9; Incubation; 5 min; room temperature. 10; Detection; Luminescence; ViewLux plate reader (PerkinElmer). NOTES (numbers refer to Sequence numbers above) 1. S2 cells expressing ATXN2-luciferase reporter were suspended in phenol-red free DMEM and dispensed in assay plates using a Multidrop Combi dispenser (Thermo Fisher Scientific). Wells containing medium only were plated on each plate, and values were used to normalize (100% inhibition) in the luciferase and CellTiter-Fluor assays. 2. Assay plates were incubated. Evaporation was prevented by covering assay plates with metal lids containing holes to allow gas diffusion. 3. Compounds were added in a dose response manner with the final concentrations of 57, 11.4, 2.28, 0.46, 0.091, 0.018, 0.0037 uM. Vehicle-only plates, with DMSO being pin-transferred to columns 5-48, were inserted uniformly at the beginning and the end of each library to monitor and record any shifts in assay performance. 5. 125 uM Gly-Phe-7-Amino-4-trifluoromethylcoumarin (MP Biomedicals) working concentration was used at a final concentration of 25 uM. 7. To assess cell viability; the assay plates were read using the ViewLux high-throughput CCD imager (PerkinElmer), wherein single end-point fluorescence measurement was acquired (excitation 405/10; emission 540/25 nm). 8. Detection reagent SteadyGlo Luciferase (Promega) was added to the assay plate. 10. Luminescence is then measured on the ViewLux imager equipped with a clear emission filter using a 2 sec exposure. […]
# Potency means the concentration at half of the fitted maximal effect.
row,Compound,Potency
1,COc1ccc(C(NCC(=O)NC(C)c2ccc(Cl)cc2)c2ccccc2)cc1 (configuration not stated),"inconclusive: 39.8 µM [cytotoxic, single point]"
2,O=C(N/N=C/c1cc(Br)ccc1OC(=O)c1ccc(Br)cc1)c1ccncc1,"inconclusive: 7.94 µM [cytotoxic, full curve]"
3,COc1ccc(CCNC2=C(Cl)C(=O)N(Cc3ccccc3)C2=O)cc1OC,inactive
4,CCOC(=O)c1c(NC(=O)/C=C/C(=O)O)sc(C)c1-c1ccc(Cl)cc1,"inconclusive: 31.6 µM [cytotoxic, single point]"
5,Cc1cc(N2CCN(c3nc(-c4ccccc4)cs3)CC2)c2ccccc2n1,inactive
6,C=C(C)Cn1c(SCC(=O)N/N=C/c2c(O)ccc3ccccc23)nc2ccccc2c1=O,"inconclusive: 35.5 µM [cytotoxic, partial curve, poor fit]"
7,CCOc1cccc(/C=N/NC(=O)C2CCCC2)c1O,"inconclusive: 39.8 µM [cytotoxic, single point]"
8,C=CCN(C(=O)CSc1nc2c(sc3ccccc32)c(=O)n1CCN(CC)CC)c1ccccc1,active: 25.1 µM
9,Cc1cc(C)c(C(=O)N2CCCC(N3CCN(c4cccc(C(F)(F)F)c4)CC3)C2)o1 (configuration not stated),inactive
10,O=C1C=CCC(/C=C/c2ccccc2)O1 (configuration not stated),active: 20 µM
11,CCCCC(=O)NC(c1ccc(Cl)cc1)c1ccc2cccnc2c1O (configuration not stated),"inconclusive: 7.08 µM [cytotoxic, partial curve]"
12,CCCCCCc1cc2cc(S(=O)(=O)c3ccc(Cl)cc3)c(=O)oc2cc1O,"inconclusive: 2.82 µM [rising, partial curve]"
13,C/C(=N\NC(=O)C1CCCN(S(=O)(=O)c2ccccc2)C1)c1ccccn1 (configuration not stated),"inconclusive: 3.16 µM [cytotoxic, single point]"
14,CC(=O)C(C(C)=O)c1c(Cl)c(O)c(O)c2c(C(=O)c3ccccc3)coc12,active: 12.6 µM
15,COc1ccc(NS(=O)(=O)c2ccc(C(=O)Nc3c(C)n(C)n(-c4ccccc4)c3=O)cc2)cc1,inactive
16,CC(=O)N1CCN(c2ccc(Oc3ccc([N+](=O)[O-])c(C(F)(F)F)c3)cc2)CC1,"inconclusive: 22.4 µM [cytotoxic, partial curve, poor fit]"
17,O=C(Oc1c(CN2CCOCC2)cc(Cl)c2cccnc12)c1ccccc1F,"inconclusive: 10 µM [cytotoxic, partial curve]"
18,COc1ccc(C(=O)NNC(=S)NC(=O)C(C)(C)C)cc1,"inconclusive: 28.2 µM [cytotoxic, single point]"
19,O=C(N/N=C/c1ccc([N+](=O)[O-])o1)c1ccc2c(c1)OCO2,"inconclusive: 35.5 µM [cytotoxic, single point]"
20,CC(=O)c1sc(C(C)(C)C)cc1NC(=O)/C=C/C(=O)O,inactive
21,O=C(CC1Sc2ccccc2NC1=O)NNc1cccc(Cl)c1Cl (configuration not stated),inactive
22,O=C(N/N=C/c1cc([N+](=O)[O-])ccc1O)c1cc(-c2ccccc2)nc2ccccc12,"inconclusive: 3.55 µM [cytotoxic, single point]"
23,COc1ccc(C)cc1Nc1nc(C)nc2sc(C)cc12,inactive

row,Compound,Potency
1,Cc1ccc(/C=C2/SC(=S)N(CCCC(=O)Nc3ccc(O)cc3)C2=O)cc1,active: 28.2 µM
2,COc1ccc(C)cc1NC(=O)CSc1ccc(-c2ccccn2)nn1,"inconclusive: 25.1 µM [cytotoxic, partial curve, poor fit]"
3,CCC(=O)NC(=S)NNC(=O)c1ccc(OC)cc1,"inconclusive: 39.8 µM [cytotoxic, single point]"
4,CN(C)CCNc1ncnc2c1sc1nc(N3CCOCC3)c3c(c12)CC(C)(C)SC3,active: 22.4 µM
5,Cc1cc(OCC(=O)Nc2ccc(Br)cc2)cc2c1C(=O)CC(C)(C)O2,inactive
6,Clc1ccccc1C(c1ccccc1)(c1ccccc1)n1ccnc1,"inconclusive: 7.94 µM [cytotoxic, partial curve, poor fit]"
7,Cc1ccc(/C=N/NC(=O)C2=NNC(c3ccccc3)(c3ccccc3)C2)c(O)c1,"inconclusive: 11.2 µM [cytotoxic, partial curve]"
8,O=C(CSc1nnc(-c2ccccc2)o1)Nc1ccccc1F,inactive
9,Cc1cc(C)nc(/N=C(\N)Nc2ccc(C(C)C)cc2)n1,inactive
10,COc1ccc(/C=C/C(=O)Nc2ccc(C)c(S(=O)(=O)N3CCOCC3)c2)cc1,"inconclusive: 28.2 µM [cytotoxic, single point]"
11,COc1cccc(CNc2nc3cc(-c4ccc(C(=O)N5CCN(C)CC5)cc4)sc3c(=O)n2C)c1,"inconclusive: 39.8 µM [cytotoxic, single point]"
12,Cc1cc(N2CCN(S(=O)(=O)c3ccc(Cl)cc3)CC2)c2ccccc2n1,"inconclusive: 3.16 µM [cytotoxic, single point]"
13,COc1cc(C(=O)O/N=C(\N)Cc2ccc([N+](=O)[O-])cc2)cc(OC)c1OC,"inconclusive: 3.16 µM [cytotoxic, single point]"
14,Cc1ccc(C(NC(=O)C(C)C)c2cc([N+](=O)[O-])c3cccnc3c2O)cc1 (configuration not stated),"inconclusive: 4.47 µM [cytotoxic, single point]"
15,O=C(/C=C/c1cccs1)c1cc(Br)ccc1OC(=O)N1CCOCC1,"inconclusive: 39.8 µM [cytotoxic, single point]"
16,c1ccc2c(c1)C(=NC1CCCCC1)NC2=NC1CCCCC1,"inconclusive: 31.6 µM [cytotoxic, single point]"
17,COc1ccc(C(=O)Cn2c(C(=O)/C=C/c3ccccc3)nc3ccccc32)cc1,"inconclusive: 2.51 µM [cytotoxic, partial curve]"
18,O=C(c1ccco1)N1CCCC(c2nc(-c3ccc(S(=O)(=O)NCc4ccccc4)cc3)no2)C1 (configuration not stated),"inconclusive: 39.8 µM [cytotoxic, single point]"
19,CC[C@@H]1C(c2cccc(Cl)c2)=NN(c2ccc(Br)cc2)[C@H]1C(=O)N1CCOC1=O,inactive
20,CCCC(=O)NC(c1ccc(Cl)cc1)c1ccc2cccnc2c1O (configuration not stated),"inconclusive: 6.31 µM [cytotoxic, partial curve]"
21,CN(C)CCNc1ccc2ncn3c4ccc(O)cc4c(=O)c1c23,inactive
22,NC(=O)c1cccc(-c2ccnc3c2CC(C(=O)Nc2cccc(Oc4ccccc4)c2)O3)c1 (configuration not stated),"inconclusive: 39.8 µM [cytotoxic, single point]"
23,CC(C)c1ccc(S(=O)(=O)c2cc3cc(Br)ccc3oc2=O)cc1,"inconclusive: 39.8 µM [cytotoxic, single point]"

row,Compound,Potency
1,Cc1nnc(SCC(N)=O)n1CC1CCCO1 (configuration not stated),inactive
2,COc1ccc(-c2cc(C3CCN(c4ccc(C(C)=O)cc4[N+](=O)[O-])CC3)[nH]n2)cc1,active: 28.2 µM
3,CN(C)C(=O)CSc1nc(-c2ccccc2)nc2c1CCCC2,"inconclusive: 14.1 µM [cytotoxic, partial curve, poor fit]"
4,COC(=O)C1=C(C)N(Cc2ccccc2)C(=NCCc2ccccn2)N[C@H]1c1cccc(C(F)(F)F)c1,"inconclusive: 3.98 µM [cytotoxic, single point]"
5,Cc1cc2sc3ccc(C#CC4(O)CCCCC4)cc3c(=O)c2cc1C,inactive
6,COc1ccccc1C(CCNCc1ccccc1)c1ccc(OC(C)C)cc1 (configuration not stated),"inconclusive: 3.98 µM [cytotoxic, single point]"
7,COc1ccc(CNCCC(c2ccc(OC(C)C)cc2)c2ccccc2OC)cc1 (configuration not stated),"inconclusive: 6.31 µM [cytotoxic, single point]"
8,CC(=NNC(=O)c1ccncc1)c1ccc2ccccc2c1O,"inconclusive: 7.08 µM [rising, single point]"
9,CC(C(=O)c1ccc(-c2ccccc2)cc1)[n+]1cccc(NC(=O)c2ccccc2)c1 (configuration not stated),inactive
10,O=C(c1ccoc1)N1CCN(c2cc(-c3cccnc3)nc3cc(-c4cccc(Cl)c4)nn23)CC1,"inconclusive: 28.2 µM [cytotoxic, single point]"
11,C=CCn1c(COc2ccccc2)nnc1SCC(=O)N/N=C/c1cc(Cl)ccc1O,inactive
12,CCOc1ccc(-n2c(-c3ccccc3)c[n+]3c2CCCCC3)cc1,"inconclusive: 17.8 µM [cytotoxic, partial curve, poor fit]"
13,Cc1cccc2c1-c1sc(C(=O)Nc3ccccc3N3CCN(C)CC3)cc1CO2,"inconclusive: 31.6 µM [cytotoxic, single point]"
14,CSc1nc(C)cc(OCC(=O)N/N=C/c2ccccc2O)n1,"inconclusive: 3.16 µM [cytotoxic, partial curve, poor fit]"
15,O=c1c2ccccc2sc2nc(CCl)nn12,"inconclusive: 3.16 µM [cytotoxic, single point]"
16,CCOC(=O)c1ccc(NC(=O)C2CCCN(S(=O)(=O)c3ccc(F)cc3)C2)cc1 (configuration not stated),"inconclusive: 39.8 µM [cytotoxic, single point]"
17,CC(C)C1Cc2c(sc3[nH]c(=S)n(Cc4ccccc4)c(=O)c23)CO1 (configuration not stated),"inconclusive: 14.1 µM [cytotoxic, partial curve, poor fit]"
18,NS(=O)(=O)c1ccc(CCNC(=O)c2cc(-c3ccccn3)nc3ccc(Br)cc23)cc1,active: 35.5 µM
19,O=C(c1cccc(Cl)c1)c1nn(-c2ccccc2)c(=O)cc1C(F)(F)F,active: 35.5 µM
20,NC(Cc1ccc(C(F)(F)F)cc1)c1csc(Nc2nccc(C(F)(F)F)n2)n1 (configuration not stated),"inconclusive: 6.31 µM [cytotoxic, single point]"
21,CCN(CC)CCC(=O)Nc1cccc2c1C(=O)c1ccccc1C2=O,active: 3.16 µM

# Rewritten with bars between the fields: three of the compounds above
row | Compound | Potency
9 | CC(C(=O)c1ccc(-c2ccccc2)cc1)[n+]1cccc(NC(=O)c2ccccc2)c1 (configuration not stated) | inactive
10 | O=C(c1ccoc1)N1CCN(c2cc(-c3cccnc3)nc3cc(-c4cccc(Cl)c4)nn23)CC1 | inconclusive: 28.2 µM [cytotoxic, single point]
11 | C=CCn1c(COc2ccccc2)nnc1SCC(=O)N/N=C/c1cc(Cl)ccc1O | inactive

# Source: PubChem BioAssay AID1745850 (National Center for Advancing Translational Sciences (NCATS), 2022)
